From PubChem BioAssay AID2685 (National Center for Advancing Translational Sciences (NCATS), 2010)
Some of the results follow. Further columns of the screen follow, without active or inactive calls. Compounds called inactive in the main read-out are mostly missing here. The note in brackets gives the kind of curve behind each potency; many fits are weak.

Assay: qHTS Assay for Lipid Storage Modulators in Drosophila S3 Cells;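 as to cell number change: cells counted by Cell Tracker Red CMTPX staining in the red channel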
Conditions: BODIPY lipid droplet fluorescence, 18-24 h; for cell number change: measured here: cell count max response, cells fed with added oleic acid
In short: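 Drosophila S3 cells loaded with oleic acid (400 uM, as added) and compounds at several concentrations; lipid droplets imaged by 488-nm laser-scanning cytometry, 500–530 nm intensity and object ratio to cell channel. Percent activity normalized to 20 uM Triacsin C.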

[1] = measured here: cell number channel AC50, cells fed with added oleic acid
[2] = measured here: lipid fluorescence (Fed channel) AC50, cells fed with added oleic acid

SMILES | cell number change | AC50 [1] | AC50 [2]
Cc1ccc(C(=O)CNc2cc(C)ccc2C)cc1 | -15.3% | – | –
CCOc1ccc(NS(=O)(=O)c2ccc(C(=O)N(C)CC(=O)Nc3ccc(OC)cc3)cc2)cc1 | -19.6% | – | –
CCCCN(C)C(=O)c1cn(-c2cccc(OC)c2)c(=O)c2ccccc12 | -9.86% | 0.259 µM [falling, full curve, poor fit] | 0.731 µM [falling, full curve, poor fit]
O=C(Nc1cccc(S(=O)(=O)N2CCCCC2)c1)c1c2c(nc3ccccc13)CCN(Cc1ccccc1)C2 | -0.249% | – | 29.1 µM [falling, single point]
COc1ccc2nc(NC(=O)CCn3cccc3)sc2c1 | 37.4% | 23.1 µM [rising, single point] | –
CCNS(=O)(=O)c1c(C)cc(C)c(N(C)S(=O)(=O)c2ccccc2)c1C | 27.3% | – | –
Cc1ccc(-n2ncc3c(=O)n(-c4ccc(C)c(C)c4)c(-c4ccco4)nc32)cc1 | 34.8% | 23.1 µM [rising, single point] | –
O=C(O)c1c(-c2ccccc2)c2oc3ccccc3c2[nH]c1=O | -2.85% | – | 0.651 µM [falling, full curve]
COc1ccc(C[C@H](C(=O)O)N2C(=O)c3ccc(C(=O)O)cc3C2=O)cc1 | – | – | 18.4 µM [rising, partial curve, poor fit]
COc1ccc(N2CCN(C(=O)CCC(=O)c3cc(C)sc3C)CC2)cc1 | 10.9% | – | 18.4 µM [rising, single point]
CC(=O)Nc1ccc(S(=O)(=O)NCC2CCC(C(=O)NCCc3ccccc3)CC2)cc1 (stereo unspecified) | – | – | 11.6 µM [falling, partial curve, poor fit]
Oc1c(Br)cc(Br)cc1CNc1nccs1 | 16.2% | – | –
O=C(NC1CCCc2c1cnn2-c1ccc(F)cc1F)c1csnn1 (stereo unspecified) | – | 0.411 µM [falling, full curve] | 0.231 µM [falling, full curve]
CCN(CC)CCNC(=O)C12CC3CC(C)(CC(C)(C3)C1)C2 | -17.2% | – | 29.1 µM [falling, single point]
O=C(Nc1nncs1)c1c(F)c(F)c(F)c(F)c1F | -32.7% | 10.3 µM [falling, partial curve] | 0.82 µM [rising, full curve, poor fit]
O=c1oc(CCCO)cc2ccc(C#CC3(O)CCCCC3)cc12 | 6.08% | 1.16 µM [falling, single point] | 0.00517 µM [rising, full curve, poor fit]
O=C(O)c1cc2cc(Cl)cc(Cl)c2oc1=O | -37.1% | 11.6 µM [falling, single point] | 29.1 µM [falling, partial curve]
CCCCCCNC(=O)Cc1ccc(Br)cc1 | 9.17% | – | –
O=C(OCC(=O)C12CC3CC(CC(C3)C1)C2)c1cnccn1 | -23.2% | – | 29.1 µM [falling, single point]
CC(CC(=O)Nc1ccc(F)cc1)S(=O)(=O)c1ccc2c(c1)NC(=O)CO2 (stereo unspecified) | 14% | – | 29.1 µM [rising, single point]

Another view of some results above:
SMILES,cell number change,AC50 [1],AC50 [2]
O=C(NC1CCCc2c1cnn2-c1ccc(F)cc1F)c1csnn1 (stereo unspecified),–,"0.411 µM [falling, full curve]","0.231 µM [falling, full curve]"
CCN(CC)CCNC(=O)C12CC3CC(C)(CC(C)(C3)C1)C2,-17.2%,–,"29.1 µM [falling, single point]"

Later entries

SMILES | cell number change | AC50 [1] | AC50 [2]
O=P(c1cccs1)(c1cccs1)c1cccs1 | -4.31% | – | 1.64 µM [falling, partial curve, poor fit]
O=C(CNC(=O)c1cccnc1)N/N=C/c1cc(Br)c(O)c(Br)c1 | -4.23% | – | –
COc1ccc(OCCCC(=O)Nc2cc(Cl)ccc2-n2cncn2)cc1 | -96.8% | 23.1 µM [falling, single point] | –
Cc1cc(C)c(C#N)c(N)n1 | – | 0.00461 µM [falling, full curve, poor fit] | –
COc1ccc(C(C(=O)NC2CCCCC2)N(Cc2cccs2)C(=O)Cc2c[nH]c3ccccc23)cc1 (stereo unspecified) | -27.5% | – | 1.3 µM [falling, full curve, poor fit]
O=C(CSc1nccc(=O)[nH]1)N1CCCc2ccccc21 | -32.9% | – | 32.6 µM [falling, partial curve, poor fit]
N/C(=N\OC(=O)COc1ccc(Br)cc1)c1cccc([N+](=O)[O-])c1 | – | 4.11 µM [rising, partial curve] | –
Cc1ccc(C2=Nc3ccc(Br)cc3C(c3ccncc3)=NN2)cc1 | -44.7% | 29.1 µM [falling, single point] | 20.6 µM [falling, partial curve]
Cc1cc(C(=O)CN2C(=O)NC(C)(c3cccc(Br)c3)C2=O)c(C)n1Cc1ccco1 (stereo unspecified) | -12% | – | 0.13 µM [falling, full curve, poor fit]
CCCC(C(=O)NC1CCCC1)N(C(=O)Cn1nnc(-c2ccc(C)o2)n1)c1ccccc1OC (stereo unspecified) | -3.4% | – | –
CCOC(=O)C1CCCN(CC(O)COCc2ccccc2OC)C1 (stereo unspecified) | -5.26% | – | –
Cc1cc(-c2n[nH]c(=S)n2/N=C/C(Br)=C/c2ccccc2)n[nH]1 | -85.8% | 13 µM [falling, partial curve] | 5.17 µM [falling, full curve]
Cc1c(N=N/C(C(=O)Nc2ccccc2)=C(/O)c2ccccc2)c(=O)n(-c2ccccc2)n1C | 7.51% | – | 0.731 µM [falling, single point]
CC(=O)N(C(C)=O)N1C(=O)/C(=C/c2ccc(Cl)cc2)SC1=S | -53.2% | 29.1 µM [falling, single point] | 23.1 µM [falling, partial curve, poor fit]
c1ccc(-c2nc(-c3ccco3)n3ccccc23)cc1 | 21% | – | 0.517 µM [falling, full curve, poor fit]
Cc1ccc(NC(=O)CSC(C)C(=O)NCCc2ccccn2)cc1 (stereo unspecified) | 23.1% | 0.00517 µM [rising, full curve, poor fit] | –
CCOC(=O)CNC(=O)c1cc(C)oc1C | – | – | 0.82 µM [rising, single point]
CCCC(=O)c1cc2cc(Cl)ccc2oc1=O | -3.87% | – | 2.31 µM [falling, full curve]
Cc1ccc(NC(=O)[C@H](NC(=O)[C@@H]2Cc3ccccc3CN2)c2ccccc2)cc1C | – | – | 23.1 µM [rising, single point]
